Reference: EP4483904A1, “POLYOXOMETALATES AS MEMBRANE CARRIERS” (Universität Wien, priority 2023, dated 2025)

Key:
heptaArg = assay: Isothermal titration calorimetry, POM into heptaArg; type: binding; conditions: 10 mM Mes, pH 5.5, 298.15 K
Procedure: (§1) All experiments were performed with a VP-ITC MicroCalorimeter from MicroCal, Int,. at atmospheric pressure and 298.15 K. Solutions were degassed and thermostatic prior the titration experiments in a ThermoVac accessory. A constant volume of POM ([PVW11]^4- or [SiMoW11]^4-) (10 µL per injection) was injected into the oligopeptide solution (heptaArg, protamine, polyArg or heptaLys) in 10 mM Mes, pH 5.5 to determine the apparent binding affinity of [PVW11]^4- and [SiMoW11]^4- with the oligopeptides. Dilution heats were determined by titration of the POM into buffer and subtracted from the reaction heat. The neat reaction heat was fitted with Origin 7.0 software by using the "one-set-of-sites" model to obtain the complex stability constant (Ka) and molar reaction enthalpy (ΔH°). The free energy (ΔG°) and entropy changes (ΔS°) were obtained according to the relation: ΔG° = - R TInKa = ΔH°-TΔS°.

protamine = assay: Isothermal titration calorimetry, POM into protamine; type: binding; conditions: 10 mM Mes, pH 5.5, 298.15 K
Procedure: as §1

polyArg = assay: Isothermal titration calorimetry, POM into polyArg; type: binding; conditions: 10 mM Mes, pH 5.5, 298.15 K
Procedure: as §1

[1] = Transport experiments in CF-loaded zwitterionic EYPC vesicles (CF fluorescence, Hill analysis); type: biochemical; conditions: EYPC⊃CF liposomes
Procedure: The dry film was rehydrated with 1 mL buffer (50 mM CF, 10 mM Hepes, pH 7.4 or 50 mM CF, 10 mM Tris, pH 7.4) for 30 min at room temperature, subjected to freeze-thaw cycles (7 times) and extrusions (15 times) through a polycarbonate membrane (pore size 100 nm). Extravesicular components were removed by size exclusion chromatography (NAP-25 column Sephadex G-25 DNA grade) with 10 mM Hepes, 107 mM NaCl, pH 7.4 or 10 mM Hepes, 107 mM NaCl, pH 7.4. Phospholipid concentration was calculated by the Stewart assay. […]
Vesicles stock solutions (5-10 µL) were diluted with the corresponding buffer in a disposable plastic cuvette and gently stirred (total volume 2000 µL, final lipid concentration 13 µM). […] Fluorescence intensities were normalized to fractional emission as: I(t) = (It −I0)/(I∞ −I0) [formula]
Where I0 = It before POM addition and I0 = I∞ after lysis. […]
In the transport measurements, where different carriers (POMs) are tested with the same cargo, the activator efficiency (E) is determined by their capacity to transport the impermeable cargo to the intravesicular region and is characterized by Ymax, its maximal activity, and EC50, the effective activator concentration. […]

| Substance | HeptaArg n (heptaArg) | Protamine n (protamine) | PolyArg n (polyArg) | vesicle lysis at higher POM concentration (DLS, Fig. 11) [1] |
| --- | --- | --- | --- | --- |
| K4[α-P^VV^VW^VI11O40]·4H2O [[PVW11]^4-] | 0.90 | 3.1 | 6.7 |  |
| K4[α-Si^IVMo^VIW^VI11O40]·24H2O [[SiMoW11]^4-] | 1.10 | 3.2 | 6.1 |  |
| K4[α-Si^IVW^VI12O40]·14H2O [[SiW12]^4-] |  |  |  | lyse the vesicles |
| Na3[α-P^VW^VI12O40]·nH2O [[PW12]^3-] |  |  |  | lyse the vesicles |
